Reference: US20010038824A1, “Intranasal cyclic peptide formulations” (priority 2000, published 2001)
For some assays here: Not every detail of the peptide structures is certain; ends, links or a residue may be inferred. At least one compound was matched to its structure with a doubt left. Numbered stars: 1 amine (or outer) side, 2 acyl side, 3 side chain; on linkers, the order of the positions; unused ones are H or OH. Bridge positions count the residues as written; N and C are the ends. Square brackets hold non-standard residues; d marks the D form. Peptide text beside a SMILES is read from it. ξ: configuration not given here. X5 = CC(C)CCCOc1ccc(-c2ccc(CC[C@H](CC(=O)[*:1])N[*:2])cc2)cc1; X6 = NCCC[C@H](N)C(=O)N(CCCN)CCCC(N[*:1])C(=O)[*:2]; X4 = CCCCCCCCCCCCC[C@H](CC(=O)[*:1])O[*:2]; X2 = NC(=O)CC(O)C(N[*:1])C(=O)[*:2]; X1 = O=C(C1C(O)CCN1[*:1])[*:2]; ξY = NC(Cc1ccc(O)cc1)C(=O)O; ξHyp = O=C(O)C1CC(O)CN1; ξOrn = NCCCC(N)C(=O)O; ξT = CC(O)C(N)C(=O)O; ξV = CC(C)C(N)C(=O)O; ξA = CC(N)C(=O)O

Key:
Candida albicans = assay: Murine systemic candidiasis; format: in vivo, mice; conditions: i.v., b.i.d×1 day followed by q.d.×2 days; survival on day 14
Method: Mice of a conventional immunocompetent mouse strain, Crj: CD-1 (ICR) were used for experimental infection models of systemic candidiasis. 4 weeks old Crj: CD-1 (ICR) mice were used for systemic candidiasis by injecting Candida albicans 5×10^6 conidia/mouse via the tail vein. Treatments were given twice (0, 4 h after infection) on the first day and once daily on following 2 days for systemic candidiasis (b.i.d×1 day followed by q.d.×2 days), intravenously (i.v.). 50% of effective dose (ED50) values was calculated from the survival number at each dose on day 14.

A. fumigatus = assay: Murine pulmonary aspergillosis; format: in vivo; conditions: cortisone-treated ICR male mice, once daily for 4 days; survival on day 14

Row | SMILES | In vivo antifungal activity against systemic candidiasis in mice, ED50 on day 14 (Candida albicans) [mg/kg] | In vivo antifungal activity against pulmonary aspergillosis in mice, ED50 on day 14 (A. fumigatus) [mg/kg]
1 | CC(C)CCCOc1ccc(-c2ccc(CC[C@@H]3CC(=O)NC(C(C)O)C(=O)NC(C)C(=O)NC(Cc4ccc(O)cc4)C(=O)NC(C(C)C)C(=O)N4CC(O)CC4C(=O)NC(C(C)O)C(=O)NC(C(C)O)C(=O)N4CCC(O)C4C(=O)NC(C(O)CC(N)=O)C(=O)NCC(=O)NC(C(C)O)C(=O)NC(CCCN)C(=O)N3)cc2)cc1 (some centres unmarked) [Aerothricin 45] ([ξT][ξA][ξY][ξV][ξHyp][ξT][ξT][X1][X2]G[ξT][ξOrn]; linker N-C via X5) | 0.3 | –
2 | CCCCCCCCCCCCC[C@@H]1CC(=O)NC(C(C)O)C(=O)NC(C)C(=O)NC(Cc2ccc(O)cc2)C(=O)NC(C(C)C)C(=O)N2CC(O)CC2C(=O)NC(C(C)O)C(=O)NC(C(C)O)C(=O)N2CCC(O)C2C(=O)NC(C(O)CC(N)=O)C(=O)NCC(=O)NC(C(C)O)C(=O)NC(CCCN(CCCN)C(=O)[C@@H](N)CCCN)C(=O)O1 (some centres unmarked) [Aerothricin 132] ([ξT][ξA][ξY][ξV][ξHyp][ξT][ξT][X1][X2]G[ξT][X6]; linker N-C via X4) | – | 5.2
